Assay results from paper PMC5608759.
No constants are given. Whether binding was seen depends on the method and setting. Binding seen in cells or lysates may run through a third protein. A yes stands for co-enrichment or nearness to the bait. Other partners may have been found.

Sequences of proteins named here, by UniProt entry; tags and fusion partners are left off.
UniProt P04150: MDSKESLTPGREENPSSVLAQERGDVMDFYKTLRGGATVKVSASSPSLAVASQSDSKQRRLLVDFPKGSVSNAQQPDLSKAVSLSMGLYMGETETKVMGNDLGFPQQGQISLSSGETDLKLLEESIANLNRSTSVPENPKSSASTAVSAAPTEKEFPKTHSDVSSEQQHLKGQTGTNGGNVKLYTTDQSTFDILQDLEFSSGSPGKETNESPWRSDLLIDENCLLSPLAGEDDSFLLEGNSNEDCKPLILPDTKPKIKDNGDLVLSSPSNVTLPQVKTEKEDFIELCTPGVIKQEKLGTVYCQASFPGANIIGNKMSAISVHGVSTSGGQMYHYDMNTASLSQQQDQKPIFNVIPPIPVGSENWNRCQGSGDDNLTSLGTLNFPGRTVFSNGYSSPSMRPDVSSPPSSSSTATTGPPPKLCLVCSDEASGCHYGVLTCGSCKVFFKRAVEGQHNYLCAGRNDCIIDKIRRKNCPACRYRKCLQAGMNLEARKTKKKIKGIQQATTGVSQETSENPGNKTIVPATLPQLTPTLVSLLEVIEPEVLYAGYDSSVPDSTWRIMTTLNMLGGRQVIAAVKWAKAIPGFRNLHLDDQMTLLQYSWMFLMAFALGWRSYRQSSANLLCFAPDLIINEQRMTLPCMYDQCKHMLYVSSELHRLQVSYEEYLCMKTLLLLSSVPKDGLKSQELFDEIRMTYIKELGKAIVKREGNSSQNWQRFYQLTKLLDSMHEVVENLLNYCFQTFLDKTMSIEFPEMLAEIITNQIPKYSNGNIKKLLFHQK

B1: rpl501 (protein, UniProt P52822 1-294)
chain: MPFIKAVKSSPYFSRYQTKYRRRREGKTDYYARKRLIAQAKNKYNAPKYRLVVRFSNRFVTCQIVSSRVNGDYVLAHAHSSELPRYGIKWGLANWTAAYATGLLVARRALAKVGLADKYEGVTEPEGEFELTEAIEDGPRPFKVFLDVGLKRTSTGSRVFGAMKGASDGGLFIPHSPNRFPGFDIETEELDDETLRKYIYGGHVAEYMEMLIDDDEERYQKQFSGLIADGIESDQLEDIYAEAYAKIREDPSFQKSGKDAAAFKAESLKHTQRKLTAEERKERFNAKVIEAGRA
B2: rpl901 (protein, UniProt Q10232 1-190)
chain: MGRDIYKDETLTIPKGVTVDIKARNVTVTGPRGTLKQNLRHVDIEMKKQGNTIKFIVWHGSRKHNACIRSVYSIINNMIIGVTQGFRYKMRLVYAHFPININLTENGTVVEIRNFLGERITRVIKCLPGVTVSISSAVKDEIILEGNSLENVSQSAANIKQICNVRNKDIRKFLDGIYVSERGNIEELEE
B3: fba1 (protein, UniProt P36580 1-358)
chain: MGILDIVPTGVITGDNVLKLFTYAREHGFAIPAINVTSSSTAIAALEAAREARSPIILQTSNGGAHFFAGKESSNEGQKASIAGSIAAAHYIRSIAPFFGVPVVMHSDHCAKKLLPWMDGMFEADEAYFKIHGEPLFSSHMLDLSEEPKKENIAQVKEYCKRAVPMKIWIEMEIGITGGEEDGVDNSHVSHTELYTQPEDIWDVYRELSSVTPYFSIAAAFGNVHGVYKPGNVKLQPALLGQHQAYVKEQLKTTNDKPVFFVFHGGSGSSVNEFRTGIKCGVVKVNIDTDTQFAYVEGVRDYVLKYKDYLMTPVGNPEGADKPNKKKFDPRVWIHEGEKTMTKRVLTALEDFYTVNTL
B4: rps1102 (protein, UniProt P0CT74 1-152)
chain: MATELVVQSERAFQKQPHIFQNAKKGAGRRWYKDVGLGFKTPAEAIYGEYVDKKCPFVGQVSIRGRILTGTVVSTKMHRTIIIRREYLHFIPKYNRYEKRHKNLAAHVSPAFRINEGDVVTVGQCRPLSKTVRFNVLRVVKHTEGPKQFGKF
B5: tdh1 (protein, UniProt P78958 1-336)
chain: MAIPKVGINGFGRIGRIVLRNALVAKTIQVVAINDPFIDLEYMAYMFKYDSTHGRFDGSVEIKDGKLVIDGNAIDVHNERDPADIKWSTSGADYVIESTGVFTTQETASAHLKGGAKRVIISAPSKDAPMYVVGVNEEKFNPSEKVISNASCTTNCLAPLAKVINDTFGIEEGLMTTVHATTATQKTVDGPSKKDWRGGRGASANIIPSSTGAAKAVGKVIPALNGKLTGMAFRVPTPDVSVVDLTVKLAKPTNYEDIKAAIKAASEGPMKGVLGYTEDAVVSTDFCGDNHSSIFDASAGIQLSPQFVKLVSWYDNEWGYSRRVVDLVAYTAAKDN
B6: nap1 (protein, UniProt O59797 1-393)
chain: MVENVNINNKRAGKMSAAPTPHNTPSGTSAPNFGAKAPQVNTIDEGDENLEAIDGKLGSLLHLTSEGVSELPEAVQRRISGLRGLQKRYSDLESQFQKELFELEKAYAKKYAPIFKRRSEVVRGADEPTEEEIKKGEAADENEKKEPTSSESKKQEGGDDTKGIPEFWLTAMKNVLSLSEMITPEDEGALSHLVDIRISYMEKPGFKLEFEFAENPFFTNKILTKTYYYMEESGPSNVFLYDHAEGDKVDWKENADLTVRTVTKKQRNKNTKQTRVVKVSVPRDSFFNFFNPPTPPSEEDEESESPELDELLELDYQIGEDFKEKLIPRAVEWFTGEALALENYDGFSDLDVEEDEDDVESSSNEEVSDSDEEDSDSKHTAHGQQNAAECRQQ
B7: tom70 (protein, UniProt O14217 1-625)
chain: MSGISNAENGKAIVSSGVLNSVSAFVRRHRTFVYTIGAVAVFATVGGVYHVQQKKASHKRSKKLKAHQDKAESKVNEGKNEAAKVVKEEDLKSSETGKDVETAAAAAAAAKKKKKNKKKVKAKKVGDSSVDKIATEESVKSMTKEERAKLAAELKTLGNKAYGQKEYANAIDYYTQAITCSHDPIFFSNRAACYAAIGDFEQVIKDTSEALSLDSSYVKALNRRSAAYEQLGKLDEALMDSTVSCIFDGFANESMTATVERLLKKVAEKKSSALLKERPPKLPAASFIQTYLDSFHAQPKPLFDNKFDGDAALAEAYEYLEKGEYQLSYDKAKESCLGSFSSPSVNARTHNLVGTFKFVSGDSKGSMENFNAAIKLDRKFIQPYIRLSAAYLDENDNEKMWKVLNDAESVDKTDSDLYYHRAQVRFVSGEFAEAISDYQKSIALDDSFIYSHIQLGVAQYKTHAIAESMKTFEDCKKRFPNSSEVYNYFGEILLDQQKFDDAVKNFDHAIELEKREHLTIMSAMPLINKALAVFQWKKDISQAENLCRQALSADPECDIAIASMAQFLLQQGKAREALEYFEKSAQLARTESEMVNAFSYAEATRTQIALTEKYPQLVGRLSNPM
B8: psu1 (protein, UniProt Q9UR09 19-417)
chain: APFRHPHHLLNKRDVSVVTSKVYAYTTVTLEAAASAISTNGAAKEAATAAGDAETTSSVAASVTPAASSSVAASVTPVASSSVAASVTPVSSSAVVDSATSAAASSSVIPTSSSVVASSSEVASSTTSSAAASATSTGSSSGGFQDGVYDCTDFPSDQSGVVALDYLGYGGYSGIQIGDGAGSSCVEGAYCSYACSPGMLKTQWPSTQPSDGETRGGLLCKGGKLYRTNTAYDNLCENGVGTASVQNTLGQGVAICQTDYPGSENMVIPTYVGGGATSPLSVTDNANYFQWEGKGTSAQYYVNKAGYTAEQGCQWGTSSGDYGNWSPLVFGAGMTDGTTWLSISQNPLTSQLANYNVKIVGADGASVSGTCVFENGAFQNGGSGCTVGITSGSGVFVFY
B9: zuotin homolog of DNAJ chaperone protein (protein, UniProt Q9Y7I8 1-442)
chain: MSAGDSIQLFPPTTKQAIEASFVPHGKISPLIKRAVEPVGPLFLAHARRQRHGRTFSEDERLEVKNKVQEEVKEESEDEEEDPAMLRADPKEWKQQDHYAVLGLSKYRYKADTEQIKKAHLKKVLKHHPDKKAASGNINDDSFFKCIQKAYEILSDPVRRRQFDSVDENADVEPPESTTKETFFELWTPVFESEARFSKKQPVPSLGTIESTRAEVDNFYNFWYNFDSWRSFEYLDKDIPDDGESRDNKRFQEKKNRSERQKNKARDNARLRNLVDTALASDPRIKLFKEQEKAAKAARKWEREAGAREAAAAAQKKKEEEERRAAEEAAAKASAAAANKKAKEDKKKAQKRDKKVVKNALKDFNYFSATDVPSAEHVDSVLKDVDVIMSKLGEGELGQLAADINAEKAAGAASVQAVFDKFAKMFIERGSMSSADVVFFAQ
B10: rpl1702 (protein, UniProt O59794 1-187)
chain: MVRYSAAPALETKCAKARGAYLRTHFKNSREVAFTINGMNLKKAFIFLDNVKEHKQAVPFRRFNGGVGRTAQGKEFGVTQARWPVKSVNFFYDLLKNAEANAEAKGLDMDKLIIKHVQVNAAPKQRRRTYRAHGRVTAYLSSPSHIEIIVAEEEEAVPKANDTVSRVSLKQGAKARNLAARKAITSA
B11: eno101 (protein, UniProt P40370 1-439)
chain: MAIQKVFARQIYDSRGNPTVEVDLTTETGIHRAIVPSGASTGIWEALEMRDGDKTKWGGKGVLKAVGNVNNIIAPAVVKANLDVTDQKAADEFLLKLDGTENKSKLGANAILGVSMAICRAGAAQKKLPLWKYIAENFGTKGPYVLPVPSFNVLNGGSHAGGDLAFQEFMILPTGAPSFSEAMRWGAETYHTLKSIAKKRYGSSAGNVGDEGGIAPDLQTPQEALDLIVEAINKAGYEGKIKIGLDVASSEFYVDGKYDLDIKAAKPKPENKLTYQQLTDLYVELSKKYPIVSIEDPFDQDDWSAWTHMKAETDFQIVGDDLTVTNVKRLRTAIDKKCANALLLKVNQIGSVTESLNAVRMSYEAGWGVMVSHRSGETADTFISHLTVGIGAGQLKSGAPCRSERLAKYNELLRIEEELGSEGVYAGAHAGKYIKAAKF
B12: Zfs1 (protein, UniProt P47979 1-404)
chain: MVYSPMSRPQVPLAFRQWPPYNYKSDPLVNSKLSQSTTSVNAGPSLISPSFLDSYANSSSLLHKPSTNLGSLKTSSLLASDEVFPSSVMPQLRPLDSSLSVSPEMDGWPWHHNSSSNPQGYAWTPSLLSSNATSYLHSGSSPHGNTSNHPSPISSLESLPSRSSTGSGSLDFSGLANLHDDSKSLAMSLNMAGVPVSVDENSQTSFPFVHGQPESTMSRKPKLCVQSKSMTNIRNSVAKPSLVRQSHSAGVIPIKPTASNASIRNAPSNLSKQFSPSGNSPLTEASKPFVPQPSAAGDFRQAKGSASHPHGSGSSNGVAPNGKRALYKTEPCKNWQISGTCRYGSKCQFAHGNQELKEPPRHPKYKSERCRSFMMYGYCPYGLRCCFLHDESNAQKSATIKQSP
B13: def1 (protein, UniProt O43024 1-963)
chain: MSENKKFRPKKVGNTEQVSEKQHTDTALNISQDNKTSSSSAKRGAKGRRGTKGKSGPANSSQTSNIEGSNALELEFDRDSQLSVLQELFPSWTIDDLSFALEEADRDLELTILHITEGHASKWGEVKKKPIPKTKSKPTSHAPVSDNVSSTFRNATRKSKKPSASKDTSRGVRKSKAGAPSDPSSVHAPSSLEKPAGTGDLPSSEISTKAPASTTVSSSVDPGTINEDSSMKDHTTSNEQASVLTSANTAASTNTNGTAGGTSASAKSTSAADQAVASSKPIKKAWASVAKSKKKVTPAPAPAPESEPSKPSIAPSQPSKTNVSAAYEKPAELSSSSVPFPHKSQDSATPANVETTPSTATSAPKKSTAPFAINAVKPAPGLSNISSASLPKPSFAKQAAVGSQSSTTSMTTARLLSDRFPVVMPVANTAAIPEKVQVRFGSLTLGGEDKKSTKSSSDNIAQSGPRSSYFPKKTVSPKPEAKKEASKVAESTKIPKKQHTSAYESRAPQSKVPENLKESHVNETPYRGLHDVNLPASGNASSVSAIPPQVSAQTTIPAASTSATSGPVVGKQSAGYGGIYSPATHGISPQPYAGASLIPPSTGAAFNNETASSNAGETTALPYSSRFMNPVENRSANSPFDNFQHIDHSTELGYASNTSQQYQQTSHPAYTTMSPIEYGQAAPAAHYYNERNQYSQYDNVAGSASNTPDVHSVMHNKVASSNATSLPAAGTATPSPVVSQQQPQPYAFPPMYPIPYVSYGYGTMPYNNNKFGQPQQGYMSQSGFNDFPPIFGGHSNVYNRQQPGNVSGMSGTQTSNPINNATANTSGMTEKAAGHRDSVIGNGGVTGANSMSSTLGGLSSMSGMGRAAPGMFMGNVGSFENLSANAASPYGLPPQQTPLTNAATQQTTSFQSNANKVNNANSQPAGFPFNSGASTNAGSNGLGGYNAYNQSFINRPGGWYGNA

Target: human glucocorticoid receptor alpha (GRα), expressed in S. pombe (human) (UniProt P04150)
Assay: affinity purification with mass spectrometry; anti-GR antibody on epoxy-activated magnetic beads; lysates of S. pombe expressing hGRα (empty vector as control) grown at 30 °C or 39 °C (heat shock 30 min); lysis buffer 250 mM NaCl, 20 mM Tris pH 7.5, 1% Triton X-100, 100 mM potassium acetate; 4 °C, 1 hour, 6 washes; SDS-PAGE and LC-MS/MS

binding, binds:
B1, B2, B3, B4, B5, B6, B7, B8, B9, B10, B11, B12, B13
